# Results reported in the supplement of paper PMC6411743.
# Sequences of proteins named here, by UniProt entry; tags and fusion partners are left off. A change or cut given only in a name is not applied to a line headed by its entry.
# UniProt Q9Y606: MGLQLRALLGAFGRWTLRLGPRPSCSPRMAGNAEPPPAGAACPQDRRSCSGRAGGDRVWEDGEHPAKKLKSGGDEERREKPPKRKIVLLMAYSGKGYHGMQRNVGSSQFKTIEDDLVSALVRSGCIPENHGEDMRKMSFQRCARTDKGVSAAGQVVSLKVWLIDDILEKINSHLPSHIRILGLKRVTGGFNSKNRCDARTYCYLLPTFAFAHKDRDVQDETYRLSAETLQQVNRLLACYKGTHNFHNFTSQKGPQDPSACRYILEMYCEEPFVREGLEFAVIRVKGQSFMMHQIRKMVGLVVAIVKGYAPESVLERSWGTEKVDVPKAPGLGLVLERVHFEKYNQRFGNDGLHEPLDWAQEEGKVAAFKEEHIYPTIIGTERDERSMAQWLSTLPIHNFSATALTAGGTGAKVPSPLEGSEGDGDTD
# UniProt P11940, whole entry: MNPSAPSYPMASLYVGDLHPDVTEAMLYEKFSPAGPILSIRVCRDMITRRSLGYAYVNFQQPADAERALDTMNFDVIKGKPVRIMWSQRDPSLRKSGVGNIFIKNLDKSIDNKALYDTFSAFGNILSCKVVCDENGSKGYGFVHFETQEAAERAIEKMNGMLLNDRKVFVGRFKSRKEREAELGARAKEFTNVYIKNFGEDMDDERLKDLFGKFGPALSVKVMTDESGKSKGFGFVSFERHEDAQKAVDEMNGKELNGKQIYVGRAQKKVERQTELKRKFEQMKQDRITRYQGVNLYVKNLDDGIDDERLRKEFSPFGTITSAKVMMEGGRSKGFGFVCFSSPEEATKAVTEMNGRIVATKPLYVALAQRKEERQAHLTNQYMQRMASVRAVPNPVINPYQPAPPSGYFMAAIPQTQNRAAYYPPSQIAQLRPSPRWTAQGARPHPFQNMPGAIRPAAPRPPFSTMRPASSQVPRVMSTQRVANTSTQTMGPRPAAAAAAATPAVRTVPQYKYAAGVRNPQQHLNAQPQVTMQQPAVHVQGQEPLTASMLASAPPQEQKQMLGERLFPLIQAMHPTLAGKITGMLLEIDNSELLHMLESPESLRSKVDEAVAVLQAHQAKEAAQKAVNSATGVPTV
# UniProt Q9BVL2: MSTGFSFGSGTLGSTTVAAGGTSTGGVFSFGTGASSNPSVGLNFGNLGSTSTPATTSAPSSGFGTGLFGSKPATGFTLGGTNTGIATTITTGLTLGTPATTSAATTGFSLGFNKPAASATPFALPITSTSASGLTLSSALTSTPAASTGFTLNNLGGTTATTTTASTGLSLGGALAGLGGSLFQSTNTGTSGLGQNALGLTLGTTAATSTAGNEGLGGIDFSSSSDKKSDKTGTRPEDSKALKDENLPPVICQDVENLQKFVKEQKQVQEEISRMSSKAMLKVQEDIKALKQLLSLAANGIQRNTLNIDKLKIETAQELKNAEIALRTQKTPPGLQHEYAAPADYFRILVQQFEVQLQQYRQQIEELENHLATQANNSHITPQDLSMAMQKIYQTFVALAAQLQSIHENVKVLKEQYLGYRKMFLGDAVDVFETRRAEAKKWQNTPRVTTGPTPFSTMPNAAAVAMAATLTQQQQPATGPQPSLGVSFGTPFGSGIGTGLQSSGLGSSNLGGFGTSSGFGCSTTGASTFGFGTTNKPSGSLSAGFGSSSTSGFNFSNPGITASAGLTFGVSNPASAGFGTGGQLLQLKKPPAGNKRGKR
# UniProt Q9BUK0: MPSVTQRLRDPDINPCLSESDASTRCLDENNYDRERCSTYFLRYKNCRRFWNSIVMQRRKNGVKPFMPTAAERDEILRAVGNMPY
# UniProt Q8WWM7: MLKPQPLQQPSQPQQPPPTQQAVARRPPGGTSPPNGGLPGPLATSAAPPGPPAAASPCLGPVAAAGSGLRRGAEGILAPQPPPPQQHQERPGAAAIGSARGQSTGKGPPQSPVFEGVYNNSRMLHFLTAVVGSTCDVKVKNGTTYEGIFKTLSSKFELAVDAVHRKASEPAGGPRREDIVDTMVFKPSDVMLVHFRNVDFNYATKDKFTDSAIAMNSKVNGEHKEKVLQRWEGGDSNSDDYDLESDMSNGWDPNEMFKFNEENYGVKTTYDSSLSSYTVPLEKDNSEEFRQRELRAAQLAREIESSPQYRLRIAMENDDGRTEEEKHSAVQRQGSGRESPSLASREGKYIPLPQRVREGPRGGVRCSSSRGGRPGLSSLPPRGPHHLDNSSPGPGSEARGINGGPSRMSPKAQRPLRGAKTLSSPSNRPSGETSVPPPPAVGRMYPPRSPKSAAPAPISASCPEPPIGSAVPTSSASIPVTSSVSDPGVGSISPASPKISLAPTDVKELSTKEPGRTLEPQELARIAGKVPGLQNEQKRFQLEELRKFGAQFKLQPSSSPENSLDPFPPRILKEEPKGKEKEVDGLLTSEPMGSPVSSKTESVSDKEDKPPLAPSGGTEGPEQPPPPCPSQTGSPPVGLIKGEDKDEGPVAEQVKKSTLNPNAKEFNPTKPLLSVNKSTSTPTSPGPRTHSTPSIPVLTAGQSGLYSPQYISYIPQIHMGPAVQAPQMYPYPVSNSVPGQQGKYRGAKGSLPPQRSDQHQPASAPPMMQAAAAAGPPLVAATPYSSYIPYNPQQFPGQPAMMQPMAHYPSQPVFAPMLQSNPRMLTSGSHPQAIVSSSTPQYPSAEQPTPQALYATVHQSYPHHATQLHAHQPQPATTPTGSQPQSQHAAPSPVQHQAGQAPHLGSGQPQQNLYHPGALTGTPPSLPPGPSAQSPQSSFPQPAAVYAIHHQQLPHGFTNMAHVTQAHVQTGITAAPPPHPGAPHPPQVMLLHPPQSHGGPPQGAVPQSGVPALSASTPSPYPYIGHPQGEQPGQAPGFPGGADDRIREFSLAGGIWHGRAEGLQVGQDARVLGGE
# UniProt Q9BQE5: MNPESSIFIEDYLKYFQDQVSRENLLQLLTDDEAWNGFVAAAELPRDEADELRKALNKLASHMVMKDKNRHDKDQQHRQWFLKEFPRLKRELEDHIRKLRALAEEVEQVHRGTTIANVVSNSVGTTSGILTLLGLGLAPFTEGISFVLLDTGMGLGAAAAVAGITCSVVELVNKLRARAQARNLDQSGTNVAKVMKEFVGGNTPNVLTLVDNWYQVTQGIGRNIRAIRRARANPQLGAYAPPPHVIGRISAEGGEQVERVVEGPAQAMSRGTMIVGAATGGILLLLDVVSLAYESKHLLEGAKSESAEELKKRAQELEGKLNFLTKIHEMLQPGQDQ
# UniProt Q5JPH6: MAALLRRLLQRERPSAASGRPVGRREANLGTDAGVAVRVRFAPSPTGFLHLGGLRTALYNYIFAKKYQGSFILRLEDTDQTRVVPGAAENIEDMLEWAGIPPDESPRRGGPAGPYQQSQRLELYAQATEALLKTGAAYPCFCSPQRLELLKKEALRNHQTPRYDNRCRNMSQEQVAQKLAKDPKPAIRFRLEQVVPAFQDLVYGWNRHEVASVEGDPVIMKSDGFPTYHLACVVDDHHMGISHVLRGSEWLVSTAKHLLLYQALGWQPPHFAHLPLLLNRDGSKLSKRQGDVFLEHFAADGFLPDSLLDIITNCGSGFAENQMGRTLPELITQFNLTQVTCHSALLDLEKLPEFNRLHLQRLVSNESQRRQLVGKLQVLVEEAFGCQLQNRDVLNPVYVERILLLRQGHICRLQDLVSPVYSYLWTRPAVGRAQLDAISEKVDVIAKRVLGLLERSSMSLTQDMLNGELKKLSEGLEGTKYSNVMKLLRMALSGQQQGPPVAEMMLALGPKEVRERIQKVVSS
# UniProt Q15004: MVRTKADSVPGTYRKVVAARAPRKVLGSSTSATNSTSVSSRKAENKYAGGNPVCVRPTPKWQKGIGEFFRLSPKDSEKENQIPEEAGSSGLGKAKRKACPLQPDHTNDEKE
# UniProt Q8TED0: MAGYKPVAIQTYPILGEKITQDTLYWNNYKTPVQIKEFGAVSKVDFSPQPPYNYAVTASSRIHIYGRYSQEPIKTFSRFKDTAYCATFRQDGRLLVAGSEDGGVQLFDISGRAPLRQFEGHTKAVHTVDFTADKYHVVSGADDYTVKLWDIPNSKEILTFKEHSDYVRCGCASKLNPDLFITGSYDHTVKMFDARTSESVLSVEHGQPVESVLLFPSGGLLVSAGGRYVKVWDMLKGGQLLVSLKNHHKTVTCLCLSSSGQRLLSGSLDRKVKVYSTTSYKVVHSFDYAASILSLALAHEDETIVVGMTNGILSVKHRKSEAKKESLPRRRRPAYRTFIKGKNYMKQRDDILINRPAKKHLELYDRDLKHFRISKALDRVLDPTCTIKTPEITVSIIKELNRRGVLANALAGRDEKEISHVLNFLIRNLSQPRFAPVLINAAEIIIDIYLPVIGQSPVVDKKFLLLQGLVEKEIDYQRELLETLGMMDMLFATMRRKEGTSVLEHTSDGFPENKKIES
# UniProt Q86W34: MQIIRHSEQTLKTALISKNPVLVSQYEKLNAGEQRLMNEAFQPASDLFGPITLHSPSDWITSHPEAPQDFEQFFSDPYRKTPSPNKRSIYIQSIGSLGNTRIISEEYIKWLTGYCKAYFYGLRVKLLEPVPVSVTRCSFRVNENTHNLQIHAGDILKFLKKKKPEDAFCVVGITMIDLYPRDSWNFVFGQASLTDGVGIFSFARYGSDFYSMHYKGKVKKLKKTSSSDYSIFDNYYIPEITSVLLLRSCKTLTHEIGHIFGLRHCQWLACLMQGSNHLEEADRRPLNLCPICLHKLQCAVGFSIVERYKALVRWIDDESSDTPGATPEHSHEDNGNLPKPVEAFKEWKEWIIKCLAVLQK
# UniProt Q92879: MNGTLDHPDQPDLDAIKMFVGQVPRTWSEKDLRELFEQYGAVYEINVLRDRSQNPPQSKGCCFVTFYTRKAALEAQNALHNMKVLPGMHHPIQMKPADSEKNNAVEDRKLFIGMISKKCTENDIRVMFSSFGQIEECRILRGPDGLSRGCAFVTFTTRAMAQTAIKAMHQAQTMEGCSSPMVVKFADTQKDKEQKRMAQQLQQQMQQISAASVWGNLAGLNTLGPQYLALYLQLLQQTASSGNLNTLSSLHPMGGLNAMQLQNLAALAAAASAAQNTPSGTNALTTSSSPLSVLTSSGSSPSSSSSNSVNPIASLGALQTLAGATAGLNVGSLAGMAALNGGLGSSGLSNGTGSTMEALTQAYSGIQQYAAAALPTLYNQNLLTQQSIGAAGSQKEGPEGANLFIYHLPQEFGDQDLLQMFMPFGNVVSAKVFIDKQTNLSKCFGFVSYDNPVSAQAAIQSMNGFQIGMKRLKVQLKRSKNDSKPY
# UniProt Q99807: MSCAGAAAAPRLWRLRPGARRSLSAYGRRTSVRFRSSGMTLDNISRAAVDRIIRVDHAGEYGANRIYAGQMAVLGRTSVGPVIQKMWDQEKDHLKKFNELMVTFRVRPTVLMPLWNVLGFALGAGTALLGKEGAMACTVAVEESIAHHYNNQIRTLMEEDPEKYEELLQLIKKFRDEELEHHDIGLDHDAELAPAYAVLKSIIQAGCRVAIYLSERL
# UniProt O95067, whole entry, looked up: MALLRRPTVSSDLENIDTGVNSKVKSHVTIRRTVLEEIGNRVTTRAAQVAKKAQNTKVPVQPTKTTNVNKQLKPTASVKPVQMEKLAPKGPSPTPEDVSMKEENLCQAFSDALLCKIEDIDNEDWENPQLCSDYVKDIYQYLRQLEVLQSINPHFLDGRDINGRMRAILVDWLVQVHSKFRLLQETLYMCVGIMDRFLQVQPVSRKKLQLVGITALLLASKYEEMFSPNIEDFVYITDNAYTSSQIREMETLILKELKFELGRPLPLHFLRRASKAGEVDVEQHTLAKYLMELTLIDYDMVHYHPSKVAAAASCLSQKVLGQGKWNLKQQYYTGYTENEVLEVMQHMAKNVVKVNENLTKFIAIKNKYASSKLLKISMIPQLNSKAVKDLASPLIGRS
# UniProt Q86VQ6, whole entry: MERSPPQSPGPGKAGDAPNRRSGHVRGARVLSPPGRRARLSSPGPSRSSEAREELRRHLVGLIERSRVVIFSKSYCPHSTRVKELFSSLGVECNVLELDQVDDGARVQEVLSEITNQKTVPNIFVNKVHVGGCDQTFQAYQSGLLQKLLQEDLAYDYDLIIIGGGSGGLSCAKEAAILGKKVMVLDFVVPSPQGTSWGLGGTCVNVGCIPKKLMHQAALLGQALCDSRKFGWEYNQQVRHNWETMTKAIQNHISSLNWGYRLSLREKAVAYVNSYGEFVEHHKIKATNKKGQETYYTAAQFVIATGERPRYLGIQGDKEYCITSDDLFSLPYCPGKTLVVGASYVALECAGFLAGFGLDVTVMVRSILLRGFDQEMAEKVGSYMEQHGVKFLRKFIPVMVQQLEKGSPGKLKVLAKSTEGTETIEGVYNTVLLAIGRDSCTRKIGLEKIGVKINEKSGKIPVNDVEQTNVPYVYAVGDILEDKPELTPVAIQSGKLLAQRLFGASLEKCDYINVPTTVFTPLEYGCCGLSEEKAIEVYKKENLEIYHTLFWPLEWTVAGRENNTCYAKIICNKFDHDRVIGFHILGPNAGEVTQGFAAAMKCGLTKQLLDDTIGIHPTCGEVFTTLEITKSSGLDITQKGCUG
# ± gives the standard deviation of the averaged measurements. The entries are a selection whose mix differs from that of the whole data set. Most values lie at the level of the controls, where differences are scatter.
# Compound: Nc1ncnc2c1ncn2[C@@H]1O[C@H](COP(=O)(O)OP(=O)(O)NP(=O)(O)O)[C@@H](O)[C@H]1O [adenylyl imidodiphosphate]
# Test: NP40-soluble protein abundance relative to vehicle (solubility fold change) (ratio); higher = more soluble protein in presence of AMP-PNP
# Conditions: concentration: 0.1mM
# In short: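 Data come from three independent experiments in which Dounce-homogenised Jurkat crude lysate was treated at eight concentrations from 0.1 to 10 mM. Treatment ran 10 min at room temperature and then 3 min at 37 °C, after which 0.8% NP40 and benzonase were added for 60 min at 4 °C before ultracentrifugation. The supernatant underwent TMT labelling and LC-MS/MS, and vsn-normalised intensities were expressed as fold change against the detergent-processed vehicle in each replicate.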
row,Target,NP40-soluble protein abundance
1,G8JLB3 and related entries (UniProt Q9Y606),1.01 ± 0.034
2,J3QRS9 and related entries (UniProt O43670),1.07 ± 0.091
3,H0YAR2 and related entries (UniProt P11940),0.972 ± 0.018
4,H7BYF2 and related entries (UniProt Q9BVL2),0.969 ± 0.021
5,J3KPV1 and related entries (UniProt Q9BUK0),0.9972 ± 0.0042
6,H3BUF6 and related entries (UniProt Q8WWM7),0.967 ± 0.025
7,J3KNP4 and related entries (UniProt Q9NPR2),0.9982 ± 0.0038
8,J3KQL8 and related entries (UniProt Q9BQE5),0.995 ± 0.023
9,H3BTB7 and related entries (UniProt Q5JPH6),1.05 ± 0.033
10,H0YKX3 and related entries (UniProt Q15004),0.977 ± 0.01
11,H0Y8P4 and related entries (UniProt Q8TED0),1.02 ± 0.079
12,J3KR97 and related entries (UniProt Q9BTW9),1.02 ± 0.049
13,J3KRD0 and related entries (UniProt Q86W34),0.96 ± 0.026
14,G5EA30 and related entries (UniProt Q92879),1 ± 0.033
15,H3BP28 and related entries (UniProt Q99807),0.991 ± 0.043
16,UniProt I3L0E3,1.03 ± 0.042
17,H1UBN3 and related entries (UniProt O95067+H1UBN3),0.992 ± 0.043
18,H0YBI6 and related entries (UniProt Q86VQ6),1.02 ± 0.011
19,H7C2Q8 and related entries (UniProt Q99848),1 ± 0.018

# A section from the list above, as a working copy:
row,Target,NP40-soluble protein abundance
10,H0YKX3 and related entries (UniProt Q15004),0.977 ± 0.01
11,H0Y8P4 and related entries (UniProt Q8TED0),1.02 ± 0.079
